Results as given in patent US8512708B2, “GP96 derived peptides” (Compugen Ltd., priority 2008, dated 2013).
Some entries share one result that the patent states for a list of compounds.

Test system: human peripheral blood mononuclear cells (PBMCs)
Assay: LPS-induced cytokine release from human PBMCs (Luminex)
Format: cell-based
Details: PBMCs treated with LPS (50 pg/ml), 24 hours; peptide 30 μg/ml=6 μM (FIG. 1)

IYVWSSKTETVEEPMEEEEAAKEEKEESDDEA [CGEN-GP3]
10-30%: decrease of IL-1b secretion | decrease of IL-6 secretion | decrease of MIP-1α secretion | decrease of TNFα secretion
